The RNAGym collection of RNA variant scans (doi:10.1126/science.aae0568)
Variants at the floor of the assay are shown more often than the library holds them.

B1: tRNA (parent)
chain: GUUCCGUUGGCGUAAUGGUAACGCGUCUCCCUCCUAAGGAGAAGACUGCGGGUUCGAGUCCCGUACGGAACG

Variants of: B1
Test: yeast fitness relative to wild type (ratio to wild type); higher = fitter; tRNA-Arg(CCU), competitive growth, 37 C, YPD
Outline: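 A pool of Saccharomyces cerevisiae strains, each with a tRNA-Arg(CCU) gene variant at the native genomic locus, was competed in YPD at 37°C for 24 hours across six parallel replicates. The variants had been chemically synthesised at a 3% per-site mutation rate over 69 sites, and gene amplicons before and after competition were read by 100-nucleotide paired-end sequencing. Darwinian fitness relative to wild type rested on changes in genotype frequencies. Genotypes required ≥ 100 starting reads, and estimates < 0.5 were set to 0.5.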

Row | Variant | yeast fitness
1 | GUUCCGUUGGCGUAAAGGUAACGUGUCUACCUCCUAAGGAGAAGACUGCGGGUUCGAGUCCCGUACGGAACG [U16A C24U C29A] | 0.57
2 | GUUCCGUUCGCGUAAUGGUAACGCGUAUCCCUCCUAAGGAGAAGACUGCGGGUUCCAGUCCCGUACGGAACG [G9C C27A G56C] | ≤ 0.5
3 | GUUCCGUUGGCGUAAUGGUUACGCGUCUUCCUCCUAAGGAGAAGACUGGGGGUUAGAGUCCCGUAUGGAACG [A20U C29U C49G C55A C66U] | ≤ 0.5
4 | GUUCCGUUGGCGUAAUGGCAACGCGUCUCCCUCCUAAGGAGAGCCCUGCGGGUUCGAGUCCCGUAUGGAACG [U19C A43G G44C A45C C66U] | 0.589
5 | GGUCCGUUGCCGUAAUGGUAACGCGUCUCCCUCCUAAGGAGAAGACUGCGGGUUCGAGUCUCGUACGGAACG [U2G G10C C61U] | ≤ 0.5
6 | GUUCCGUUGGGGUUAUGGUAACGCGUCUCCCUCAUAAGGAGAAGACUGCGGGUUCGGGUCCCGUACGGAACG [C11G A14U C34A A57G] | 0.642
7 | GAUCCGUUGGCAUAAUGGUAACACGUCUGCCUCCUAAGGAGAAGACUGCGGGUUCGAGUCCCGUACGGAACG [U2A G12A G23A C29G] | ≤ 0.5
8 | GUUGGGUUGGAGUAAUGGUAACGCGUCUCCCUCCUAAAGAGAAGACUGCGGGUUCGAGUCCCGUACAGAACG [C4G C5G C11A G38A G67A] | ≤ 0.5
9 | GUUCCGUUGGCAUAAUGGUAACGCGUUUCCCUCCUAAGCAGAAGACUGCGGGUUCGAGUCCCGUACGGAACG [G12A C27U G39C] | ≤ 0.5
10 | GUUCGGUUGGCGUAAUGGGAAUGCGUCUCCCCCCUAAGGAGAAGACUGCGGGUUCGAGUCCCGUCUGGAACG [C5G U19G C22U U32C A65C C66U] | ≤ 0.5
11 | GUUCUGUUGGUGUAAUGGUAACGCGUCUCCCUCAUAAGGAGAAGACUGCGGGUUCGAGUCCCGUACGGAACG [C5U C11U C34A] | 0.558
12 | GUUCCGUUGGCGUAAUGGUAGCGGGUCUCCCUCCUAGGGAGAAGACUGCGGGUUCGAGUACCGUACGGAGCG [A21G C24G A37G C60A A70G] | ≤ 0.5
13 | GUUCCCUCGGCGUAAUGGUAACGCGUCUCCCUCCUAAGGAGAAGACUGCAGGUUCGAGUCCCGUACCGAUCG [G6C U8C G50A G67C A70U] | ≤ 0.5
14 | GUUCCGUUGGCAUAAUGGUGACGCGUCUCCCUCCCGGGGAGAAGACUGCGGGUUCGAGUCCCGUACGGAACG [G12A A20G U35C A36G A37G] | ≤ 0.5
15 | GUUCCGUUGGCGUUAUGGUAACGCGUCUCCAUCCUAAGGAGAAGAAUGCGGGUUCGAGUCCCGUACGGAACG [A14U C31A C46A] | ≤ 0.5
16 | GUUCCGUUGGCGUAAUGGUAACGCGCCUCCCUCCUAGGGAGAAGACUGGGGGUUCGAGUCCCCUACGCAACG [U26C A37G C49G G63C G68C] | ≤ 0.5
17 | GUUCCGUUGGCGUGAUGGUAACGCGUCUCCCUCCUAAGGAGAAGCCUGCGGGUUCGAGUCCCGUACGGAACG [A14G A45C] | 0.718
18 | GUUCGGUUGGCGUAAUGGUAACGCGUCUCCCUGCUAAGGAGAAGACUGCGGGUUCGAGUACCGUACCGAACG [C5G C33G C60A G67C] | ≤ 0.5
19 | GUUCCGGUGCCGUAAUGGUAACGGGUCUCCGUGCUAAGGAGACGACUGCGGGUUCGAGUCCCGUACGGAACG [U7G G10C C24G C31G C33G A43C] | ≤ 0.5

Row | Variant | yeast fitness
20 | GUUCGGUUGGCGUAAUGGUAACGCGUCUCCCUCCAAAGGGGAAGACUGCGGGUUCGAGUCCCGUACGGAACG [C5G U35A A40G] | ≤ 0.5
21 | GUUCCCUUGGCGUAAUAGUAACGCGUCUCUCUCCUAAGGAGCAGACUGCAGGUUCGAGUCCCGUACGGAACG [G6C G17A C30U A42C G50A] | ≤ 0.5
22 | GUCCCGUUGGCGUACUGGUAACGCGUCUCCCUCCUCAGGAGAAGACAGCGGGUUCGAGUCCGGUACGGAACG [U3C A15C A36C U47A C62G] | ≤ 0.5
23 | GUUCCGUUGGCGUAAUGGUAACGCGUCUCCCUCUGAAAGAGAAGACUGCGCGUUCGAGUCCCGUACGGUACG [C34U U35G G38A G51C A69U] | ≤ 0.5
24 | GUUCCGUUGGCGUAAAGGUAACGCGUUUCCCUCCUACGGUGAUGACUGCGGGUUCGAGUCCCGUAUGGAACG [U16A C27U A37C A40U A43U C66U] | ≤ 0.5
25 | GUUCCGUUGGCGUAAUGGUAACGGGUCUCCAUCCUAAGGAGAAGACUGCGGGUUCGAGUCCCGUACGGCACG [C24G C31A A69C] | ≤ 0.5
26 | GUUCCGUUGGCGUAAUGGUAACGCGUCUCCCUCCUUAGAAGAAGACUGCGGGUUCGAGUCCCGUACGGAACG [A36U G39A] | 0.657
27 | GUUCCGUUGGCGUAAUGGUAACGCGUCUCCCUCCUAGGGAGAAGACUGCGGGUACGAGUCUCGUACGGAACG [A37G U54A C61U] | ≤ 0.5
28 | GUUCCGUUGGCGUAAUGGUAACGCGUCUUCCUCCUUAAGAGAAGACUGCGGGUUCGAGUACCGUACGGAGCG [C29U A36U G38A C60A A70G] | ≤ 0.5
29 | GUUCCGUUGGCGUAAUGGUAACGACUCUCCCUCCUAAGGAGAAGACAGCGGGUUCGAGUCCCGUACGGAACG [C24A G25C U47A] | ≤ 0.5
30 | GUUCCGUUGGUGUAAAGGUAACGCGUCUGCCUCCUACGGAGUAGACUGCGGGUUCGGGUCCCGUACAGAACG [C11U U16A C29G A37C A42U A57G G67A] | ≤ 0.5
31 | GUUGCGUUCGCGUAAUGGUAACGCGUCUCCCUCAUGAGGCGAAGACUGCGGGUUCGAGUCCCGUACGGAACG [C4G G9C C34A A36G A40C] | ≤ 0.5
32 | GUUCCGUCGGCGUAAUGGUAAGGCGUCUCCCUCCUAAGGAGAAGACCGCGGGGUCGAGUCCCGUACGGAACG [U8C C22G U47C U53G] | ≤ 0.5
33 | GUUCCCUUGGCGUAGUGGUAACGUGUCUCCCUCCUAAGGAGAAGACUGCGGGUUUGAGUACCGUACGGAACG [G6C A15G C24U C55U C60A] | ≤ 0.5
34 | GUUCCGUUGGCGUAGUGGUACCGGGUCUCCCUCCUAAGGUGAAGACUGCGGGUUCGAGUCCCGUACUGAACG [A15G A21C C24G A40U G67U] | ≤ 0.5
35 | GUGCCGUUGGCGUUAUGGAAACGCGUCUCCCUCCUAAGGAGAAGACUGCGGGUUCGAGUCCCGUACGGAACG [U3G A14U U19A] | ≤ 0.5
36 | GUUCCGUUGGCGUAAUGGUAAUGCGUCUCCCUCCUAAGGAGAAGACUGCGGGUUGGAGUCCCGUACGGCACG [C22U C55G A69C] | ≤ 0.5
37 | GUUCCGUUGGCGUAAUGGUCACGCGUCUCCCUCCAGAGGAGAACACUGCGGGUUCGAGUCCCGUACGGAACG [A20C U35A A36G G44C] | ≤ 0.5
38 | GUUCCGUUGGCGUAAUGGUAACGCGUCGCCCUCCUAACGGGAAGACUGCGGGUUCGAGUCCCGUACGGAACG [U28G G38C A40G] | 0.546
